Earlier results in patent US20240142382A1, “METHODS AND COMPOSITIONS FOR CALIBRATED LABEL-FREE SURFACE-ENHANCED RAMAN SPECTROSCOPY” (Virginia Tech Intellectual Properties, Inc., priority 2021, published 2024).

Test system: MDA-MB-231
Conditions: MDA-MB-231 triple-negative breast cancer cells; read-out: half-maximal inhibition concentration (IC50); cited from earlier work

CC(=O)O[C@H]1C(=O)[C@@]2(C)[C@H]([C@H](OC(=O)c3ccccc3)[C@]3(O)C[C@H](OC(=O)[C@H](O)[C@@H](NC(=O)c4ccccc4)c4ccccc4)C(C)=C1C3(C)C)[C@]1(OC(C)=O)CO[C@@H]1C[C@@H]2O [PTX, paclitaxel]
IC50: 15 nM
